Results from PMC11570319.
Results are given in words; binding and its absence hold for the method and conditions named. In cells and extracts the contact can be indirect. Binding calls can cover weak binding; strength is not graded here.

Sequences of proteins named here, by UniProt entry; tags and fusion partners are left off. A change or cut given only in a name is not applied to a line headed by its entry.
UniProt P06797: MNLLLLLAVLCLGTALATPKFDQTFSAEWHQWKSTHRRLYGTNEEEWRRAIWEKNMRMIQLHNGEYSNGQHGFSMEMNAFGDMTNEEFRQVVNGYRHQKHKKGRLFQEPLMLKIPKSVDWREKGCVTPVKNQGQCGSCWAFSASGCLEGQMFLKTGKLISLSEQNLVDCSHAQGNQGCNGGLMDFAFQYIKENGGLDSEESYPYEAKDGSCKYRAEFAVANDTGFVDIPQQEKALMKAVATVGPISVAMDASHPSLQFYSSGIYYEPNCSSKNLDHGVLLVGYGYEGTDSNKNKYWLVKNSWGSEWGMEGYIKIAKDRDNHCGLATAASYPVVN

Target: cathepsin L (CTSL), mouse (mouse (endogenous in BMDM)) (UniProt P06797)
Test: proximity ligation; Duolink in situ PLA on fixed, permeabilised BMDM cells; cells treated with IAAP or SID26681509 for 6 h, then LPS (100 ng/mL) for 5 min; PLA signals per cell counted

B1: A20 (deubiquitinating enzyme), mouse (enzyme, UniProt Q60769 1-775)
chain: MAEQLLPQALYLSNMRKAVKIRERTPEDIFKPTNGIIYHFKTMHRYTLEMFRTCQFCPQFREIIHKALIDRSVQASLESQKKLNWCREVRKLVALKTNGDGNCLMHAACQYMWGVQDTDLVLRKALCSTLKETDTRNFKFRWQLESLKSQEFVETGLCYDTRNWNDEWDNLVKMASADTPAARSGLQYNSLEEIHIFVLSNILRRPIIVISDKMLRSLESGSNFAPLKVGGIYLPLHWPAQECYRYPIVLGYDSQHFVPLVTLKDSGPELRAVPLVNRDRGRFEDLKVHFLTDPENEMKEKLLKEYLIVMEIPVQGWDHGTTHLINAAKLDEANLPKEINLVDDYFELVQHEYKKWQENSDQARRAAHAQNPLEPSTPQLSLMDIKCETPNCPFFMSVNTQPLCHECSERRQKNQSKLPKLNSKLGPEGLPGVGLGSSNWSPEETAGGPHSAPPTAPSLFLFSETTAMKCRSPGCPFTLNVQHNGFCERCHARQINASHTADPGKCQACLQDVTRTFNGICSTCFKRTTAEPSSSLTSSIPASCHQRSKSDPSQLIQSLTPHSCHRTGNVSPSGCLSQAARTPGDRAGTSKCRKAGCMYFGTPENKGFCTLCFIEYRENKQSVTASEKAGSPAPRFQNNVPCLGRECGTLGSTMFEGYCQKCFIEAQNQRFHEARRTEEQLRSSQHRDMPRTTQVASRLKCARASCKNILACRSEELCMECQHLSQRVGSVAHRGEPTPEEPPKQRCRAPACDHFGNAKCNGYCNECYQFKQMYG
B1 was tested, and the binding was “binds”.
